Substitutions are numbered along the chain they refer to. Results are given in words; binding and its absence hold for the method and conditions named. Some entries that bind do so weakly or less than the wild type.
Key:
[1] = molecular target: T1, peptide 13 of the first library (aa 13-21 of Aβ); test: ELISA, biotinylated peptides of the third library on streptavidin plate, antibody 200 ng/ml, O.D. 405 nm [lower chart, Figure 3]
T1 sequence (peptide, biotinylated (position not stated)): HHQKLVFFA

Chains of the proteins cited; added tags and fusions are not shown. Residues count along the entry.
UniProt P05067, residues 672-713: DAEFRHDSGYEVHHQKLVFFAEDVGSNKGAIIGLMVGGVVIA

[2] = molecular target: T2, peptide 14 of the first library (aa 14-22 of Aβ); test: as above
T2 sequence (peptide, biotinylated (position not stated)): HQKLVFFAE

[3] = molecular target: T3, peptide p13-21 G21 of the third library (A21 to glycine); test: as above
T3 sequence (peptide, biotinylated (position not stated)): HHQKLVFFG

[4] = molecular target: T4, peptide 15 of the first library (aa 15-23 of Aβ); test: as above
T4 sequence (peptide, biotinylated (position not stated)): QKLVFFAED

[5] = molecular target: T5, peptide p14-22 A22 of the third library (E22 to alanine); test: as above
T5 sequence (peptide, biotinylated (position not stated)): HQKLVFFAA

[6] = molecular target: T1, peptide 13 of the first library (aa 13-21 of Aβ); test: ELISA on biotinylated peptides on streptavidin plates, hC2 at 200 ng/ml
[7] = molecular target: T2, peptide 14 of the first library (aa 14-22 of Aβ); test: as above
[8] = molecular target: peptide 16 of the first library (aa 16-24 of Aβ) (UniProt P05067); test: as above
[9] = molecular target: T6, peptide 12 of the first library (aa 12-20 of Aβ); test: as above
T6 sequence (peptide, biotinylated (position not stated)): VHHQKLVFF

[10] = molecular target: T4, peptide 15 of the first library (aa 15-23 of Aβ); test: as above
A12 = molecular target: T7, A12; test: ELISA, biotinylated alanine-substituted peptides on streptavidin plate, antibody 200 ng/ml, O.D. 405 nm [middle chart, Figure 2]
T7 sequence (peptide, biotinylated): AHHQKLVFF

[11] = molecular target: T8, peptide A15 of the second library (aa 12-20, Q15 to alanine); test: as above
T8 sequence (peptide, biotinylated (position not stated)): VHHAKLVFF

[12] = molecular target: T6, peptide 12 of the first library (aa 12-20 of Aβ); test: as above
A13 = molecular target: T9, A13; test: as above
T9 sequence (peptide, biotinylated): VAHQKLVFF

A14 = molecular target: T10, A14; test: as above
T10 sequence (peptide, biotinylated): VHAQKLVFF

[13] = molecular target: T11, peptide A18 of the second library (aa 12-20, V18 to alanine); test: as above
T11 sequence (peptide, biotinylated (position not stated)): VHHQKLAFF

[14] = molecular target: T8, peptide A15 of the second library (aa 12-20, Q15 to alanine); test: ELISA on alanine-substituted biotinylated peptides, hC2 at 200 ng/ml
[15] = molecular target: T11, peptide A18 of the second library (aa 12-20, V18 to alanine); test: as above
[16] = molecular target: T1, peptide 13 of the first library (aa 13-21 of Aβ); test: ELISA, biotinylated peptide on streptavidin plate, antibody 200 ng/ml, O.D. 405 nm [upper chart, Figure 1]
[17] = molecular target: T2, peptide 14 of the first library (aa 14-22 of Aβ); test: as above
[18] = molecular target: peptide 16 of the first library (aa 16-24 of Aβ) (UniProt P05067); test: as above
[19] = molecular target: T6, peptide 12 of the first library (aa 12-20 of Aβ); test: as above
[20] = molecular target: T4, peptide 15 of the first library (aa 15-23 of Aβ); test: as above
[21] = molecular target: T3, peptide p13-21 G21 of the third library (A21 to glycine); test: ELISA on third peptide library, hC2 at 200 ng/ml
[22] = molecular target: T5, peptide p14-22 A22 of the third library (E22 to alanine); test: ELISA on third peptide library, hC2 at 200 ng/ml
[23] = molecular target: Amyloid Beta (antigen of the Amyloid Beta ELISA) (UniProt P05067); test: Amyloid Beta ELISA, purified antibodies, A405 against antibody in ng/well
[24] = molecular target: Amyloid Beta (antigen of the Amyloid Beta ELISA) (UniProt P05067); test: Amyloid Beta ELISA, conditioned medium of transient transfection, A405 against antibody in ng/well
[25] = molecular target: Amyloid Beta (antigen of the Amyloid Beta ELISA) (UniProt P05067); test: Amyloid Beta ELISA, conditioned medium from transient transfection

Measured: binding

B1: humanized anti-human amyloid beta monoclonal antibody hC2 (antibody, human IgG4 S228P, kappa, V domains shown)
VH: EVQLVESGGGLVQPGGSLRLSCAASGFTFSSYGMSWVRQAPGKGLELVASINSNGGSTYYPDSVKGRFTISRDNAKNSLYLQMNSLRAEDTAVYYCASGDYWGQGTTVTVSS
VL: DIVMTQSPLSLPVTPGEPASISCRSSQSLVYSNGDTYLHWYLQKPGQSPQLLIYKVSNRFSGVPDRFSGSGSGTDFTLKISRVEAEDVGVYYCSQSTHVPWTFGQGTKVEIKR
not listed: [23] | [24] | [25]
binds: all other assays above

B2: humanized antibody C2 HuVH2/HuVK3 (antibody, human IgG4 S228P, kappa, V domains shown)
VH: B1 VH with L47W
VL: B1 VL with Q50K
binds: [23]

B3: chimeric C2 VH combined with mC2 VK-R (CDRL2 RVSNRFS) (antibody, V domains shown)
VH: EVQLVESGGGLVQPGGSLKLSCAASGFTFSSYGMSWVRQTPDKRLELVASINSNGGSTYYPDSVKGRFTISRDNAKNTLYLQMSSLKSEDTAMYYCASGDYWGQGSTLTVSS
VL: DVVMTQTPLSLPVSLGDQASISCRSSQSLVYSNGDTYLHWYLQKPGQSPKLLIYRVSNRFSGVPDRFSGSGSGTDFTLKISRVEAEDLGVYFCSQSTHVPWTFGGGTKLEIK
binds: [24] | [25]

B4: chimeric C2 VH combined with mC2 VK-S (CDRL2 KVSSRFS) (antibody, V domains shown)
VH: B3 VH
VL: B3 VL with R55K, N58S
binds: [24] | [25]
